For 1 molecule, binding results are on record in PMC6712396.

Holding throughout (test): affinity purification with mass spectrometry; 293T cells transfected 48 h with HA-tagged IFI44, IFI6 or IFI27; lysed in Co-IP buffer (100 mM NaCl, 0.5 mM EDTA, 20 mM Tris-HCl pH 7.5, 1% Triton X-100, 5% glycerol); complexes purified on anti-HA affinity columns and eluted; SDS-PAGE, in-gel trypsin, LC-MS/MS
Assay [1] addresses T1, IFI27 fused to an HA tag (human) (UniProt P40305).
T1 sequence: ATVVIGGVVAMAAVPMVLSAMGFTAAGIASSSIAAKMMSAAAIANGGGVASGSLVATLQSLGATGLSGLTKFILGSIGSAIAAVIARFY

The target in assay [2] is T2, interferon (IFN)-induced protein 44 (IFI44) fused to a hemagglutinin (HA) epitope tag (human) (UniProt Q8TCB0).
T2 sequence: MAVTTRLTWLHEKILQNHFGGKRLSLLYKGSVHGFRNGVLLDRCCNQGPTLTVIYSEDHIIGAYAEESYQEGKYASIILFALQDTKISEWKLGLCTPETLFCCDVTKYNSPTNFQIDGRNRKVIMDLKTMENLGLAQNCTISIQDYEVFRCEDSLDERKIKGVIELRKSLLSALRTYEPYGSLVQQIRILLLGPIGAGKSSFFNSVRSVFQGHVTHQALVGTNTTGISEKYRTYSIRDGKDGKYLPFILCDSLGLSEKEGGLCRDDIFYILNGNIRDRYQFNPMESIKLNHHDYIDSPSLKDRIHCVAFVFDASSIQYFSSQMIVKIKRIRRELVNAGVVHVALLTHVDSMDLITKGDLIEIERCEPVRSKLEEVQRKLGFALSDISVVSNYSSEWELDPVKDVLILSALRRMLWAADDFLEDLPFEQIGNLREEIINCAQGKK

Assay [3] addresses T3, IFI6 fused to an HA tag (human) (UniProt P09912).
T3 sequence: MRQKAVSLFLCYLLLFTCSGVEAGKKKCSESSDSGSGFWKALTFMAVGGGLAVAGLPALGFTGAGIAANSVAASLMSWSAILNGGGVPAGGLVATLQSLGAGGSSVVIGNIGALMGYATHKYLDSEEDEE

No constants are given. Whether binding was seen depends on the method and setting. In cells and extracts the contact can be indirect. Here binding means that the protein was enriched with, or labelled near, the bait; the list need not be complete. For part of these data: No binding means not detected with the bait. Where a sequence is shown, tags or fusion partners need not be part of it.

B1: endogenous FK506-binding protein 5 (FKBP5) (protein, UniProt Q13451 1-457)
chain: MTTDEGAKNNEESPTATVAEQGEDITSKKDRGVLKIVKRVGNGEETPMIGDKVYVHYKGKLSNGKKFDSSHDRNEPFVFSLGKGQVIKAWDIGVATMKKGEICHLLCKPEYAYGSAGSLPKIPSNATLFFEIELLDFKGEDLFEDGGIIRRTKRKGEGYSNPNEGATVEIHLEGRCGGRMFDCRDVAFTVGEGEDHDIPIGIDKALEKMQREEQCILYLGPRYGFGEAGKPKFGIEPNAELIYEVTLKSFEKAKESWEMDTKEKLEQAAIVKEKGTVYFKGGKYMQAVIQYGKIVSWLEMEYGLSEKESKASESFLLAAFLNLAMCYLKLREYTKAVECCDKALGLDSANEKGLYRRGEAQLLMNEFESAKGDFEKVLEVNPQNKAARLQISMCQKKAKEHNERDRRIYANMFKKFAEQDAKEEANKAMGKKTSEGVTNEKGTDSQAMEEEKPEGHV
In the case of B1, the values for the binding entry in assay [1], in assay [2] and in assay [3] were “no binding”, “binds” and “no binding”, respectively.
